Measurements published in patent US20260201043A1 (INSTITUT NATIONAL DE LA RECHERCHE SCIENTIFIQUE, published 2026).
No constants are given. Whether binding was seen depends on the method and setting. Some entries that bind do so weakly or less than the wild type.

Sequences of proteins named here, by UniProt entry; tags and fusion partners are left off. A change or cut given only in a name is not applied to a line headed by its entry. A line that says so, or that is headed by a name, gives the form on record, which may keep a tag or linker.
recombinant human galectin-9 (O00182, form named): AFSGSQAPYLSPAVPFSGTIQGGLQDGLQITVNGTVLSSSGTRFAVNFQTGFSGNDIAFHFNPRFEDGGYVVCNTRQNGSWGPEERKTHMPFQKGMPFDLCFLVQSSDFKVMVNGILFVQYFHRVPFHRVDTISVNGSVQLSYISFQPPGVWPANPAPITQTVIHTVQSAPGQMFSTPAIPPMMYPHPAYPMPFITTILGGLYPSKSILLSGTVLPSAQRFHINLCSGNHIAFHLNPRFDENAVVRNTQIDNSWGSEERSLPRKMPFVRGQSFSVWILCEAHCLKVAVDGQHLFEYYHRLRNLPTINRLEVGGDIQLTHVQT

Columns and labels:
[1] = biological target: recombinant human galectin-9 (human) (UniProt O00182); assay: phage ELISA, 384-well plate, anti-M13-HRP
[2] = biological target: recombinant human galectin-9 (human) (UniProt O00182); assay: phage ELISA on biotinylated His-GAL-9
[3] = biological target: recombinant human galectin-9 (human) (UniProt O00182); assay: ELISA: sdAb immobilized at 1 µM, increasing GAL-9, anti-GAL-9 detection
[4] = biological target: recombinant N-terminal domain of human GAL-9 (human) (UniProt O00182); assay: ELISA: sdAb immobilized at 1 µM, 5 µM GAL-9N
[5] = biological target: recombinant human galectin-9 (human) (UniProt O00182); assay: ELISA: sdAb immobilized at 1 µM, 5 µM galectin
[6] = biological target: recombinant C-terminal domain of human GAL-9 (human) (UniProt O00182); assay: ELISA: sdAb immobilized at 1 µM, 5 µM GAL-9C

Measured: binding

B1: G9N4 (VHH)
VHH: EVQLQASGGGFVQPGGSLRLSCAASGGTWRWTIMGWFRQAPGKEREFVSAISRTNSEYQYYADSVKGRFTISRDNSKNTVYLQMNSLRAEDTATYYCAEPTAVWADKGQEMQSYWGQGTQVTVSS
notes: Synthetic humanized sdAb; on M13 phage in the screening ELISA, purified with His and cMyc tags and immobilized in wells otherwise; also called GAL-9-specific sdAb G9N4; not shown: 6xHis and cMyc tags from vector pHEN2
binds: [1] | [2] | [3]

B2: G9N2 (VHH, not shown: small tags and cut ends)
VHH: EVQLQASGGGFVQPGGSLRLSCAASGSTSADSTMGWFRQAPGKEREFVSAISENNGADRYYADSVKGRFTISRDNSKNTVYLQMNSLRAEDTATYYCAYWKIAYTKQYEFLRYWGQGTQVTVSS
binds: all assays above

B3: G9N3 (VHH)
VHH: EVQLQASGGGFVQPGGSLRLSCAASGDGSGWDIMGWFRQAPGKEREFVSAISRHDTTYSYYADSVKGRFTISRDNSKNTVYLQMNSLRAEDTATYYCATIPASWNKSYWGQGTQVTVSS
notes: Synthetic humanized sdAb; on M13 phage in the screening ELISA, purified with His and cMyc tags and immobilized in wells otherwise; also called GAL-9-specific sdAb G9N3; not shown: 6xHis and cMyc tags from vector pHEN2
binds: [1] | [5] | [2] | [3]
